The supplement of paper PMC6335503

System: Tasmanian devil fibroblasts
Experiment: cell viability, percent of DMSO control (CellTiter-Glo); higher = more viable cells
Conditions: 72 h
Procedure: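 Eight-point dose titration of 41 screen hits in triplicate wells on four Tasmanian devil DFTD tumour cell lines (T1-T4) and devil fibroblasts, 384-well plates. Viability was read by CellTiter-Glo (ATP) after 72 h at 37 °C. Percent of control per plate: DMSO wells = 100%, positive-control wells = 0%.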

CC#CC(=O)Nc1ccc2ncnc(Nc3cccc(Br)c3)c2c1
Conditions | cell viability [%]
0.00617 µM | 93.7
0.0185 µM | 97
0.0556 µM | 113
0.166667 µM | 78
0.5 µM | 96.9
1.5 µM | 83
4.5 µM | 70.8
13.5 µM | 102

COc1cc2ncnc(Nc3ccc(Cl)cc3F)c2cc1OC
Conditions | cell viability [%]
0.00617 µM | 83.1
0.0185 µM | 78.3
0.0556 µM | 128
0.166667 µM | 141
0.5 µM | 101
1.5 µM | 94.2
4.5 µM | 77.2
13.5 µM | 134

COc1cc2ncnc(Nc3cccc(Br)c3)c2cc1OC.Cl
Conditions | cell viability [%]
0.00617 µM | 140
0.0185 µM | 85
0.0556 µM | 96.3
0.166667 µM | 118
0.5 µM | 120
1.5 µM | 89
4.5 µM | 89.7
13.5 µM | 102

COc1cccc2c1C(=O)c1c(O)c3c(c(O)c1C2=O)C[C@@](O)(C(=O)CO)C[C@@H]3O[C@H]1C[C@H](N)[C@@H](O)[C@H](C)O1.Cl
Conditions | cell viability [%]
0.00617 µM | 147
0.0185 µM | 135
0.0556 µM | 139
0.166667 µM | 116
0.5 µM | 100
1.5 µM | 69.7
4.5 µM | 56.7
13.5 µM | 11.7

COc1cccc2c1C(=O)c1c(O)c3c(c(O)c1C2=O)C[C@@](O)(C(=O)CO)C[C@@H]3O[C@H]1C[C@H](N)[C@H](O)[C@H](C)O1.Cl
Conditions | cell viability [%]
0.00617 µM | 126
0.0185 µM | 129
0.0556 µM | 105
0.166667 µM | 146
0.5 µM | 107
1.5 µM | 86.2
4.5 µM | 81.4
13.5 µM | 39.4

COc1cc2ncnc(Nc3ccc(F)c(Cl)c3)c2cc1NC(=O)/C=C/CN1CCCCC1
Conditions | cell viability [%]
0.00617 µM | 104
0.0185 µM | 122
0.0556 µM | 118
0.166667 µM | 107
0.5 µM | 99.7
1.5 µM | 102
4.5 µM | 131
13.5 µM | 144

CS(=O)(=O)CCNCc1ccc(-c2ccc3ncnc(Nc4ccc(OCc5cccc(F)c5)c(Cl)c4)c3c2)o1.Cc1ccc(S(=O)(=O)O)cc1
Conditions | cell viability [%]
0.00617 µM | 80.4
0.0185 µM | 112
0.0556 µM | 93.2
0.166667 µM | 115
0.5 µM | 106
1.5 µM | 88.2
4.5 µM | 126
13.5 µM | 132

Cn1nc(-c2ccccn2)nc2c(=O)n(C)c(=O)nc1-2
Conditions | cell viability [%]
0.00617 µM | 138
0.0185 µM | 106
0.0556 µM | 94.2
0.166667 µM | 120
0.5 µM | 116
1.5 µM | 103
4.5 µM | 98.7
13.5 µM | 3.56

C=CC(=O)N1CCC[C@@H](n2nc(-c3ccc(Oc4ccccc4)cc3)c3c(N)ncnc32)C1
Conditions | cell viability [%]
0.00617 µM | 105
0.0185 µM | 103
0.0556 µM | 127
0.166667 µM | 85.6
0.5 µM | 76
1.5 µM | 81.4
4.5 µM | 53.1
13.5 µM | 45.7

O=c1c(=NNc2nnn[nH]2)c(=O)c2ccccc12
Conditions | cell viability [%]
0.00617 µM | 112
0.0185 µM | 113
0.0556 µM | 105
0.166667 µM | 106
0.5 µM | 125
1.5 µM | 117
4.5 µM | 29.3
13.5 µM | -3.64

CCN1CCN(Cc2ccc(-c3cc4c(N[C@H](C)c5ccccc5)ncnc4[nH]3)cc2)CC1 [AEE788]
Conditions | cell viability [%]
0.00617 µM | 77.5
0.0185 µM | 77.4
0.0556 µM | 134
0.166667 µM | 122
0.5 µM | 110
1.5 µM | 81.7
4.5 µM | 91.4
13.5 µM | -3.31

COc1cc2ncnc(Nc3cccc(Cl)c3)c2cc1OC [AG-1478]
Conditions | cell viability [%]
0.00617 µM | 107
0.0185 µM | 103
0.0556 µM | 110
0.166667 µM | 102
0.5 µM | 106
1.5 µM | 110
4.5 µM | 115
13.5 µM | 137

COc1cc2ncnc(Nc3cccc(Cl)c3F)c2cc1OC(=O)N1CCN(C)C[C@H]1C [AZD3759]
Conditions | cell viability [%]
0.00617 µM | 95.5
0.0185 µM | 93.3
0.0556 µM | 124
0.166667 µM | 154
0.5 µM | 87.1
1.5 µM | 81.4
4.5 µM | 85.1
13.5 µM | 127

CNC(=O)CN1CCC(Oc2cc3c(Nc4cccc(Cl)c4F)ncnc3cc2OC)CC1 [AZD8931 (Sapitinib)]
Conditions | cell viability [%]
0.00617 µM | 123
0.0185 µM | 110
0.0556 µM | 108
0.166667 µM | 98.3
0.5 µM | 134
1.5 µM | 124
4.5 µM | 92.2
13.5 µM | 84

CN(C)C/C=C/C(=O)Nc1cc2c(Nc3ccc(F)c(Cl)c3)ncnc2cc1O[C@H]1CCOC1 [Afatinib (BIBW2992)]
Conditions | cell viability [%]
0.00617 µM | 122
0.0185 µM | 114
0.0556 µM | 106
0.166667 µM | 100
0.5 µM | 141
1.5 µM | 109
4.5 µM | 96.7
13.5 µM | -4.62

C=CC(=O)Nc1cc2c(Nc3ccc(F)c(Cl)c3)ncnc2cc1OCCCN1CCOCC1 [Canertinib (CI-1033)]
Conditions | cell viability [%]
0.00617 µM | 93.8
0.0185 µM | 99.4
0.0556 µM | 149
0.166667 µM | 118
0.5 µM | 144
1.5 µM | 77.3
4.5 µM | 96.5
13.5 µM | 5.54

Nc1ccc(F)cc1NC(=O)c1ccc(CNC(=O)/C=C/c2cccnc2)cc1 [Chidamide]
Conditions | cell viability [%]
0.0309 µM | 122
0.0926 µM | 103
0.277778 µM | 124
0.833333 µM | 114
2.5 µM | 104
7.5 µM | 74.1
22.5 µM | 71.1
67.5 µM | 68.2

CC1(C)CC(=O)C2=C(C1)NC(=S)NC2c1cccc(O)c1 (stereo not drawn) [Dimethylenastron]
Conditions | cell viability [%]
0.00617 µM | 110
0.0185 µM | 107
0.0556 µM | 117
0.166667 µM | 105
0.5 µM | 102
1.5 µM | 137
4.5 µM | 126
13.5 µM | 121

COc1cccc2c1C(=O)c1c(O)c3c(c(O)c1C2=O)C[C@@](O)(C(=O)CO)C[C@@H]3O[C@H]1C[C@H](N)[C@H](O)[C@H](C)O1 [Doxorubicin]
Conditions | cell viability [%]
0.00617 µM | 118
0.0185 µM | 104
0.0556 µM | 128
0.166667 µM | 125
0.5 µM | 131
1.5 µM | 81.6
4.5 µM | 60.6
13.5 µM | 21.6

C#Cc1cccc(Nc2ncnc3cc(OCCOC)c(OCCOC)cc23)c1.Cl [Erlotinib hydrochloride]
Conditions | cell viability [%]
0.00617 µM | 139
0.0185 µM | 125
0.0556 µM | 120
0.166667 µM | 115
0.5 µM | 103
1.5 µM | 103
4.5 µM | 116
13.5 µM | 112

C#Cc1cccc(Nc2ncnc3cc(OCCOC)c(OCCOC)cc23)c1 [Erlotinib]
Conditions | cell viability [%]
0.0123 µM | 98.3
0.037 µM | 108
0.111111111 µM | 105
0.333333 µM | 98.3
1 µM | 92.8
3 µM | 125
9 µM | 101
27 µM | 159

COc1cc2c(cc1-c1c(C)noc1C)ncc1[nH]c(=O)n([C@H](C)c3ccccn3)c12 [I-BET151]
Conditions | cell viability [%]
0.0309 µM | 102
0.0926 µM | 118
0.277778 µM | 114
0.833333 µM | 62.4
2.5 µM | 69.6
7.5 µM | 78.6
22.5 µM | 98.1
67.5 µM | 93.6

Cc1cc(Nc2ncnc3ccc(NC4=NC(C)(C)CO4)cc23)ccc1Oc1ccn2ncnc2c1 [Irbinitinib(ARRY-380; ONT-380)]
Conditions | cell viability [%]
0.00617 µM | 82.5
0.0185 µM | 110
0.0556 µM | 98.9
0.166667 µM | 102
0.5 µM | 89
1.5 µM | 108
4.5 µM | 109
13.5 µM | 143

CS(=O)(=O)CCNCc1ccc(-c2ccc3ncnc(Nc4ccc(OCc5cccc(F)c5)c(Cl)c4)c3c2)o1.Cc1ccc(S(=O)(=O)O)cc1.Cc1ccc(S(=O)(=O)O)cc1.O [Lapatinib ditosylate monohydrate]
Conditions | cell viability [%]
0.00617 µM | 107
0.0185 µM | 101
0.0556 µM | 124
0.166667 µM | 85.7
0.5 µM | 89.5
1.5 µM | 89
4.5 µM | 157
13.5 µM | 141

CS(=O)(=O)CCNCc1ccc(-c2ccc3ncnc(Nc4ccc(OCc5cccc(F)c5)c(Cl)c4)c3c2)o1 [Lapatinib]
Conditions | cell viability [%]
0.0123 µM | 88.6
0.037 µM | 109
0.111111111 µM | 98.5
0.333333 µM | 107
1 µM | 93.6
3 µM | 128
9 µM | 88.7
27 µM | 101

C=CC(=O)Nc1cc(Nc2ncc(Cl)c(-c3c[nH]c4ccccc34)n2)c(OC)cc1N(C)CCN(C)C [Mutant EGFR inhibitor]
Conditions | cell viability [%]
0.00617 µM | 103
0.0185 µM | 83.8
0.0556 µM | 116
0.166667 µM | 106
0.5 µM | 92.9
1.5 µM | 114
4.5 µM | 70.7
13.5 µM | 48.4
